This passage reports median seed-adjusted z-score results from PubChem BioAssay AID1347426 (Functional Genomics Laboratory (NCATS/FGL), 2020).

Screen size: about 31,000 sequences; about 1,400 (4.5%) were called active.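 How the source made its calls: active means median seed-adjusted z-score above 1 or below -1; inactive means the rest.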 This is one part of the list.

This assay can be described thus: Novel Modifiers of Survival Motor Neuron (SMN) Protein: Gene Identification via Genome-wide siRNA Screen.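 Further: luminescence tracks full-length SMN protein made from the SMN2 reporter.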 Particulars: HEK293T SMN2-luciferase reporter, siRNA knockdown, 72 h; actives lie on both sides. A digest of the protocol: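 Luciferase signal, proportional to full-length SMN made from an SMN2 cDNA reporter in stable HEK293T cells, was read 72 h after siRNA reverse transfection. Values were expressed as MAD scores after non-targeting-control normalization and log10 conversion; seed analysis flagged off-targets.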
As to GGCUCGUCGUACUCCAUCATT against PAX5, the median seed-adjusted z-score was inactive: 0.285.
As for GGAGGGUGGGUGAAUUCCATT against DNAJC4, the figure is inactive: 0.566; as for CCAUCUAUGUAAUUCAACATT against LRRC19, inactive: -0.062.
As for GGAACUCUCUAAAAAGGAATT against TXNDC5, the median seed-adjusted z-score is inactive: -0.753.
As to GCUGGAUUCUGGACCAUUUTT against FOXN2, the median seed-adjusted z-score was inactive: 0.0947.
On to CCCAGGCUCUCAAAACCAATT against EPN2, for which the median seed-adjusted z-score is inactive: -0.00173.
For the sequence GGAAGACCAUGACUUACCATT against SPIC, the median seed-adjusted z-score was inactive: 0.379.
As for AACUGUUAGGUGUCUGAUATT against TCF15, the figure is inactive: -0.361; as for CGGUCCUAGUGGAACUACUTT against PCDHA10, inactive: 0.0404; as for CCGAGACCUUGAGACCAUATT against XPC, inactive: -0.564.
As for GGAGUUAUAUUUAGUGAUATT against ABCA10, the figure is inactive: -0.104; as for GCUUUGUCACAUAACGUGATT against SLC38A2, active: -1.04; as for GAUUUCACCUCAGUCGUUATT against MGAM, inactive: 0.312.
The figure for GCCUUCACGUCUGAACAUATT against GAD2 is inactive: 0.0588.
Turning to GUAGUAACCUUGCAAGAUUTT against USP33, the median seed-adjusted z-score is inactive: -0.63.
Turning to GAACUCUCUUGUGACCUUATT against IL22RA2, the median seed-adjusted z-score was inactive: -0.147.
On to CCAAAACUGUCUACGCAAATT against GRK1, for which the median seed-adjusted z-score is inactive: 0.0807.
Regarding GGCGAUUAGGAAACAUGAATT against PRKX, the median seed-adjusted z-score was inactive: 0.0341.
The figure for GUAAACGAGUUGUUCCAUUTT against TMPRSS11A is inactive: 0; for AGAUGUACGAGGAAAAGUATT against WNK4 it is inactive: 0.385.
The figure for UGUUUUCAAUUUAAUCAGATT against G6PC2 is inactive: -0.0362; for ACAUCGUUACGCUACAUGATT against PCTK1 it is inactive: -0.729; for CAGGCGAUCUGCAUACUUUTT against CSF3R it is inactive: -0.491.
Turning to GGUUGUGAUCAGUCCAUCATT against ABHD14B, the median seed-adjusted z-score is inactive: -0.175.
Turning to GCAGCCUAAUAUUUGAUUUTT against LCN9, the median seed-adjusted z-score is inactive: -0.897.
GGAGAAGAAUGAGCAACUUTT against ADAM19: the median seed-adjusted z-score is inactive: 0.0996.
Turning to CUGGGUCACUGGUGUUUGATT against ATF3, the median seed-adjusted z-score was inactive: -0.000485.
Take GCAUCGACCUUGCAGUCUATT against SLC25A25: the median seed-adjusted z-score was inactive: -0.668.
For CAAAUUGAGUCACUCUUAATT against MGAT2, the median seed-adjusted z-score was inactive: -0.124.
The figure for CGCCUCCAGUUUUAACUCUTT against POU2F3 is active: -1.53; for GGAGCAGAAAUAAGCCUUATT against SCN3B it is inactive: 0; for GGAGGGUCUGGAUACCUUUTT against KLK9 it is inactive: -0.476.
Turning to GGCAAGUCAUGGUGCUGAATT against TESK1, the median seed-adjusted z-score is inactive: 0.384.
In the case of GGGUUUUUGUGGGCGGAGATT against ISYNA1, the median seed-adjusted z-score was inactive: 0.
Turning to GCAGAAAGAUAGAAGGAAATT against CAPN9, the median seed-adjusted z-score was inactive: 0.417.
With GUACAUUGUGGGUAUAGUATT against TMPRSS11F, the median seed-adjusted z-score is inactive: -0.289.
With CUAUAUGAAUCACUAUACATT against ZNF181, the median seed-adjusted z-score was inactive: -0.154.
Turning to GGUACCAGAUGGUUCUAGATT against EPHA1, the median seed-adjusted z-score is inactive: -0.092.
For the sequence GAGAUUUGAUGAGAAGAGATT against MMP3, the median seed-adjusted z-score is inactive: 0.0592.
As for GGACCACCGCAUCUCUACATT against BIRC5, the figure is inactive: 0.0236; as for CCAUCGUCAGCCUCAUGUATT against PTDSS1, inactive: -0.76.
For the sequence GCAGUUCUGGAGGUACUUUTT against SLC25A6, the median seed-adjusted z-score was inactive: -0.928.
On to CCCUGUAUUUCAUCGAUAATT against TOP1MT, for which the median seed-adjusted z-score was inactive: 0.159.
Turning to CCUCAGAUGAUAACAGUUUTT against POMGNT1, the median seed-adjusted z-score is inactive: -0.0431.
As for GGCUGCAAAAUCUCACUAATT against TLR8, the figure is inactive: 0; as for CCCGGCACGUCAUCAUCAATT against KCNG2, inactive: 0; as for GGCUGCAGUCUAUACCAUATT against SLC35A1, inactive: 0.00794.
Turning to GCUCACCAGUGUCAUGUUUTT against SLC7A4, the median seed-adjusted z-score is inactive: -0.102.
As to CCAUGUAACUCUGACCAAUTT against FBXO44, the median seed-adjusted z-score is inactive: -0.45.
As to GCGUGUCCCUGGAUGUCAATT against HSPB1, the median seed-adjusted z-score was inactive: 0.693.
Consider CCAGGGCAAACGCAUCAAATT against NPAS1, for which the median seed-adjusted z-score is inactive: -0.386.
Regarding GCUGCUCACUGUUUCAUGATT against PRSS36, the median seed-adjusted z-score was inactive: 0.589.
As for AGGCUGCGUUUGGACCAGATT against PAPLN, the median seed-adjusted z-score is inactive: -0.186.
For the sequence GGGAGAGUGUGCUACGAAATT against NEIL1, the median seed-adjusted z-score is inactive: -0.168.
As to CAUCCAACGACAAUCUAUATT against ATP1A2, the median seed-adjusted z-score is inactive: 0.248.
For GCCCUAUAGCUGUGCUGAATT against ZNF473, the median seed-adjusted z-score is inactive: -0.166.
Consider CCACUACUCUAGGUCCAAATT against SRCAP, for which the median seed-adjusted z-score was inactive: -0.42.
As for CCAGAGACUUAAUACAGGATT against ZNF790, the figure is inactive: 0.245.
Take GAUGAAAUGCUGCCGCAAUTT against WFDC2: the median seed-adjusted z-score is inactive: -0.466.
As for CAAUACCACCGUAUUCUUATT against NFYA, the median seed-adjusted z-score was inactive: 0.437.
With CAGUGCUCAUUUUACAAUATT against HBP1, the median seed-adjusted z-score was inactive: -0.117.
For the sequence CGACAGACCAGGCAGUUCATT against PDE6G, the median seed-adjusted z-score is inactive: 0.0109.
For GCAAUCCAGAGGUACGCUATT against HGF, the median seed-adjusted z-score is inactive: -0.569.
For the sequence CCACUUUCAUCGUCUUAUATT against GPR88, the median seed-adjusted z-score is inactive: 0.404.
Turning to GGAUGUGAAUUAUUGGACATT against HAVCR2, the median seed-adjusted z-score is inactive: 0.205.
As to GAACUUUAUUUACCGAAAATT against POLR1B, the median seed-adjusted z-score was inactive: -0.434.
Consider GGUUCUUGCUUACACUCUUTT against ESSPL, for which the median seed-adjusted z-score is inactive: 0.328.
On to GGCUACACCUGCAACGUGATT against GRN, for which the median seed-adjusted z-score is inactive: -0.767.
The figure for CAAGAAACAAGCGACAAAATT against HRASLS3 is inactive: 0.085; for GAGUAUCAGCAGAAGAUCATT against SCYL1 it is inactive: 0.0409.
With GGAUCGGCGCAAUUAAGCATT against BHLHB2, the median seed-adjusted z-score is inactive: 0.
With GCUAUGAAUUCACCAGUAATT against CCL26, the median seed-adjusted z-score is inactive: -0.01.
Turning to AGACCUCCUACGACAUUAATT against BOC, the median seed-adjusted z-score was inactive: -0.0192.
As for GAAAAUCGCUGCCUACUUATT against GSTM3, the figure is inactive: -0.66.
Regarding GACUAUCAGUUGCUAAAUUTT against HOXB5, the median seed-adjusted z-score is inactive: 0.061.
The figure for AGAUUGAAAUCGACUUUGATT against BRD4 is active: 1.13.
As for GCUGGACUCUAAUCCCUUUTT against PNPO, the median seed-adjusted z-score was inactive: -0.0845.
Consider CCAUCUACCUGAACGUGGATT against PFKFB3, for which the median seed-adjusted z-score is inactive: -0.133.
Take GGAGAGACCAGUAAACCGATT against NSFL1C: the median seed-adjusted z-score was inactive: -0.0899.
As for GAGCGGUUCAAGACAAUAATT against RAB13, the median seed-adjusted z-score is inactive: -0.599.
CAAGAUGAAUUAAAGCGAUTT against CAND1: the median seed-adjusted z-score was inactive: 0.157.
The figure for GGAACAAGGUUAAAGCCGATT against PGK1 is inactive: -0.0196; for CAACUUUCAUGGGAUGAAUTT against CD33 it is inactive: -0.355.
On to CAACCUACAUGUUUGCUGATT against SCARF1, for which the median seed-adjusted z-score is inactive: -0.324.
With GAUGCAACGUGGAAAUCAATT against SLC10A2, the median seed-adjusted z-score was inactive: -0.219.
On to AAGUGAUCAUUUCAACCAATT against DHX33, for which the median seed-adjusted z-score is inactive: -0.689.
Regarding CGAGGUCAAAUACUAUGAATT against EPHA3, the median seed-adjusted z-score was inactive: 0.
As for CCCUGAAUAUUGCAAUGGATT against ADAM2, the figure is inactive: -0.116.
As for GUAUCGAAUAUCUAUCUGATT against PRSS21, the figure is inactive: -0.306; as for UCCUGUUCCUGAUUCCCAATT against STK25, inactive: -0.0703; as for GAACAGAUGCAAAAUCGGATT against SCYE1, inactive: 0.437.
GCAUCACCGCUUUCAUGAATT against ZFAT: the median seed-adjusted z-score is inactive: -0.183.
GUCUUAGAAUGAGUAGCAATT against KCNMA1: the median seed-adjusted z-score is inactive: 0.
As for GGCACAAGGAGAAUACAUATT against ACSL1, the figure is inactive: 0.264; as for GAUCUACUCUGGGAGACAATT against ADAM15, inactive: -0.682.
Consider GAACUGACCGAGUCAGAAATT against LOC4951, for which the median seed-adjusted z-score was inactive: 0.0691.
As to GAUGGAACAUACAAAUUUUTT against TMED2, the median seed-adjusted z-score is inactive: 0.288.
Regarding CACUGACUAUUAUCAUUCATT against WHSC1L1, the median seed-adjusted z-score was inactive: -0.283.
As for GUCAGUCCCUUUGACCAUATT against PTPN1, the figure is inactive: 0.05; as for GGCACUUCAUGUUCCGGAATT against DYRK1B, inactive: 0.29; as for ACGUGGAAGUGACCCGGAATT against MTX1, inactive: -0.159.
Take CCAAUGCAAUCAUUAAUGATT against NRXN1: the median seed-adjusted z-score was inactive: 0.433.
As for GCACCUGCUUAAUCGCGAATT against ACY3, the median seed-adjusted z-score was inactive: 0.568.
The figure for GUGCCCAACAAGUAUCUAATT against SEMA6C is inactive: 0.321.
For the sequence GGAGGCAUUUGAAGUUCCATT against FARP1, the median seed-adjusted z-score is inactive: -0.487.
Take GGUUGGUUACUUUUCGAUATT against IQCH: the median seed-adjusted z-score is inactive: 0.
Regarding GAAGAGAACUCUAAGAUCATT against CAMK1G, the median seed-adjusted z-score was inactive: -0.358.
